No constants are given. Whether binding was seen depends on the method and setting. Binding seen in cells or lysates may run through a third protein. Here binding means that the protein was enriched with, or labelled near, the bait; the list need not be complete.

Chains of the proteins cited; added tags and fusions are not shown.
UniProt P78344: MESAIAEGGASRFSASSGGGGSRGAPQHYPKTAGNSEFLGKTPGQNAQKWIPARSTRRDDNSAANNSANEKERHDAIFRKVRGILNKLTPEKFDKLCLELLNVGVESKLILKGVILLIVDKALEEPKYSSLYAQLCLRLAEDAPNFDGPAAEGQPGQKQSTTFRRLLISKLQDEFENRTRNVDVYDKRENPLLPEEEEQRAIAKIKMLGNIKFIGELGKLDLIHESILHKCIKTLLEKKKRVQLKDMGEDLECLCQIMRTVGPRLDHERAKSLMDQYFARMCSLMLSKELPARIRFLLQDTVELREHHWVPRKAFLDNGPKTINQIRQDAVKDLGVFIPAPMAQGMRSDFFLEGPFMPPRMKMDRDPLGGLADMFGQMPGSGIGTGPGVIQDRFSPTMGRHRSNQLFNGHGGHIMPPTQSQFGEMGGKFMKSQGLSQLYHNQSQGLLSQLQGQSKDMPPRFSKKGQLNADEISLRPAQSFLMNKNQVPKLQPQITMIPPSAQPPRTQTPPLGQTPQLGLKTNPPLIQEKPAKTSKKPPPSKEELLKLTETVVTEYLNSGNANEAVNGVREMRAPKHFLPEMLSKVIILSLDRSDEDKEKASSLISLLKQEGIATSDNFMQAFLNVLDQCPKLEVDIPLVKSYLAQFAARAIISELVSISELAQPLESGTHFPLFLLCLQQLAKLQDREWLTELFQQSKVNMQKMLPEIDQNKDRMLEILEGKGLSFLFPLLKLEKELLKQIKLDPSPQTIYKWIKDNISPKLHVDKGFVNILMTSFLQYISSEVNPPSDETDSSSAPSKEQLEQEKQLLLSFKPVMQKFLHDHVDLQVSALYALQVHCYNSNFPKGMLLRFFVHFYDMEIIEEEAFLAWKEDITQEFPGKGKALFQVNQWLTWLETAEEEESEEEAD

The target of the assay is T1, DEAD-Box Helicase 1 (DDX1) (human (endogenous in KELLY and IMR5/75)) (UniProt Q92499).
T1 sequence: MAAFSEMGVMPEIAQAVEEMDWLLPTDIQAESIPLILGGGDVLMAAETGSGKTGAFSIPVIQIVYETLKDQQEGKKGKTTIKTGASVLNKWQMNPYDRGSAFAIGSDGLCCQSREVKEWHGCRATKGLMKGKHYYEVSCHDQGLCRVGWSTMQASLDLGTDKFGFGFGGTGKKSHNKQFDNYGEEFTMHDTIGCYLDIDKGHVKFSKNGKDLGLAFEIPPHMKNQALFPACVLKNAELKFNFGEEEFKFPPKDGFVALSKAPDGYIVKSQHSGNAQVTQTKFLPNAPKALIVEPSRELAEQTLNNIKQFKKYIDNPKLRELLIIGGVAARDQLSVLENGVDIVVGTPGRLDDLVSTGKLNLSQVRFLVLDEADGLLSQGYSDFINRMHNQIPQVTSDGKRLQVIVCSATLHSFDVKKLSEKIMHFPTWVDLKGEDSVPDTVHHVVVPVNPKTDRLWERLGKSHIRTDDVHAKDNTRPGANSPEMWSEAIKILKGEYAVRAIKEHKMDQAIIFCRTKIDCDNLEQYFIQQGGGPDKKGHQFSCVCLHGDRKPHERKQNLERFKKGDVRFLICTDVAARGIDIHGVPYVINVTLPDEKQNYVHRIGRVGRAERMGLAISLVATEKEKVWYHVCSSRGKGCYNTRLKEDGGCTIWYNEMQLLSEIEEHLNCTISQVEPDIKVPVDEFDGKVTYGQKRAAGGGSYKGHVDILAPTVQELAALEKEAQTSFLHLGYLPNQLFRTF
Kind of assay: affinity purification with mass spectrometry; immunoprecipitation of endogenous DDX1 (antibody, Protein A-Sepharose, overnight 4°C) from whole-cell extracts of KELLY (MYCN amplified) and IMR5/75 (DDX1-MYCN coamplified) cells; IgG control; LC-MS/MS, label-free quantitation.

eIF4G2 (from UniProt P78344 1-907): the binding result was “binds”.

B1: DLD (protein, UniProt P09622 36-509)
chain: ADQPIDADVTVIGSGPGGYVAAIKAAQLGFKTVCIEKNETLGGTCLNVGCIPSKALLNNSHYYHMAHGKDFASRGIEMSEVRLNLDKMMEQKSTAVKALTGGIAHLFKQNKVVHVNGYGKITGKNQVTATKADGGTQVIDTKNILIATGSEVTPFPGITIDEDTIVSSTGALSLKKVPEKMVVIGAGVIGVELGSVWQRLGADVTAVEFLGHVGGVGIDMEISKNFQRILQKQGFKFKLNTKVTGATKKSDGKIDVSIEAASGGKAEVITCDVLLVCIGRRPFTKNLGLEELGIELDPRGRIPVNTRFQTKIPNIYAIGDVVAGPMLAHKAEDEGIICVEGMAGGAVHIDYNCVPSVIYTHPEVAWVGKSEEQLKEEGIEYKVGKFPFAANSRAKTNADTDGMVKILGQKSTDRVLGAHILGPGAGEMVNEAALALEYGASCEDIARVCHAHPTLSEAFREANLAASFGKSINF
In the case of B1, the binding entry was “binds”.
